Experimental data as given in article PMC11730779.
Numbering of substitutions follows the chain as printed. Names and notes keep the numbering of the source. Results are given in words; binding and its absence hold for the method and conditions named. In cells and extracts the contact can be indirect. Binding can be weak; no strength is given.

Chains of the proteins cited; added tags and fusions are not shown. Lines headed by an entry give the natural chain unless they say otherwise; changes in a name come on top.
UniProt P11881: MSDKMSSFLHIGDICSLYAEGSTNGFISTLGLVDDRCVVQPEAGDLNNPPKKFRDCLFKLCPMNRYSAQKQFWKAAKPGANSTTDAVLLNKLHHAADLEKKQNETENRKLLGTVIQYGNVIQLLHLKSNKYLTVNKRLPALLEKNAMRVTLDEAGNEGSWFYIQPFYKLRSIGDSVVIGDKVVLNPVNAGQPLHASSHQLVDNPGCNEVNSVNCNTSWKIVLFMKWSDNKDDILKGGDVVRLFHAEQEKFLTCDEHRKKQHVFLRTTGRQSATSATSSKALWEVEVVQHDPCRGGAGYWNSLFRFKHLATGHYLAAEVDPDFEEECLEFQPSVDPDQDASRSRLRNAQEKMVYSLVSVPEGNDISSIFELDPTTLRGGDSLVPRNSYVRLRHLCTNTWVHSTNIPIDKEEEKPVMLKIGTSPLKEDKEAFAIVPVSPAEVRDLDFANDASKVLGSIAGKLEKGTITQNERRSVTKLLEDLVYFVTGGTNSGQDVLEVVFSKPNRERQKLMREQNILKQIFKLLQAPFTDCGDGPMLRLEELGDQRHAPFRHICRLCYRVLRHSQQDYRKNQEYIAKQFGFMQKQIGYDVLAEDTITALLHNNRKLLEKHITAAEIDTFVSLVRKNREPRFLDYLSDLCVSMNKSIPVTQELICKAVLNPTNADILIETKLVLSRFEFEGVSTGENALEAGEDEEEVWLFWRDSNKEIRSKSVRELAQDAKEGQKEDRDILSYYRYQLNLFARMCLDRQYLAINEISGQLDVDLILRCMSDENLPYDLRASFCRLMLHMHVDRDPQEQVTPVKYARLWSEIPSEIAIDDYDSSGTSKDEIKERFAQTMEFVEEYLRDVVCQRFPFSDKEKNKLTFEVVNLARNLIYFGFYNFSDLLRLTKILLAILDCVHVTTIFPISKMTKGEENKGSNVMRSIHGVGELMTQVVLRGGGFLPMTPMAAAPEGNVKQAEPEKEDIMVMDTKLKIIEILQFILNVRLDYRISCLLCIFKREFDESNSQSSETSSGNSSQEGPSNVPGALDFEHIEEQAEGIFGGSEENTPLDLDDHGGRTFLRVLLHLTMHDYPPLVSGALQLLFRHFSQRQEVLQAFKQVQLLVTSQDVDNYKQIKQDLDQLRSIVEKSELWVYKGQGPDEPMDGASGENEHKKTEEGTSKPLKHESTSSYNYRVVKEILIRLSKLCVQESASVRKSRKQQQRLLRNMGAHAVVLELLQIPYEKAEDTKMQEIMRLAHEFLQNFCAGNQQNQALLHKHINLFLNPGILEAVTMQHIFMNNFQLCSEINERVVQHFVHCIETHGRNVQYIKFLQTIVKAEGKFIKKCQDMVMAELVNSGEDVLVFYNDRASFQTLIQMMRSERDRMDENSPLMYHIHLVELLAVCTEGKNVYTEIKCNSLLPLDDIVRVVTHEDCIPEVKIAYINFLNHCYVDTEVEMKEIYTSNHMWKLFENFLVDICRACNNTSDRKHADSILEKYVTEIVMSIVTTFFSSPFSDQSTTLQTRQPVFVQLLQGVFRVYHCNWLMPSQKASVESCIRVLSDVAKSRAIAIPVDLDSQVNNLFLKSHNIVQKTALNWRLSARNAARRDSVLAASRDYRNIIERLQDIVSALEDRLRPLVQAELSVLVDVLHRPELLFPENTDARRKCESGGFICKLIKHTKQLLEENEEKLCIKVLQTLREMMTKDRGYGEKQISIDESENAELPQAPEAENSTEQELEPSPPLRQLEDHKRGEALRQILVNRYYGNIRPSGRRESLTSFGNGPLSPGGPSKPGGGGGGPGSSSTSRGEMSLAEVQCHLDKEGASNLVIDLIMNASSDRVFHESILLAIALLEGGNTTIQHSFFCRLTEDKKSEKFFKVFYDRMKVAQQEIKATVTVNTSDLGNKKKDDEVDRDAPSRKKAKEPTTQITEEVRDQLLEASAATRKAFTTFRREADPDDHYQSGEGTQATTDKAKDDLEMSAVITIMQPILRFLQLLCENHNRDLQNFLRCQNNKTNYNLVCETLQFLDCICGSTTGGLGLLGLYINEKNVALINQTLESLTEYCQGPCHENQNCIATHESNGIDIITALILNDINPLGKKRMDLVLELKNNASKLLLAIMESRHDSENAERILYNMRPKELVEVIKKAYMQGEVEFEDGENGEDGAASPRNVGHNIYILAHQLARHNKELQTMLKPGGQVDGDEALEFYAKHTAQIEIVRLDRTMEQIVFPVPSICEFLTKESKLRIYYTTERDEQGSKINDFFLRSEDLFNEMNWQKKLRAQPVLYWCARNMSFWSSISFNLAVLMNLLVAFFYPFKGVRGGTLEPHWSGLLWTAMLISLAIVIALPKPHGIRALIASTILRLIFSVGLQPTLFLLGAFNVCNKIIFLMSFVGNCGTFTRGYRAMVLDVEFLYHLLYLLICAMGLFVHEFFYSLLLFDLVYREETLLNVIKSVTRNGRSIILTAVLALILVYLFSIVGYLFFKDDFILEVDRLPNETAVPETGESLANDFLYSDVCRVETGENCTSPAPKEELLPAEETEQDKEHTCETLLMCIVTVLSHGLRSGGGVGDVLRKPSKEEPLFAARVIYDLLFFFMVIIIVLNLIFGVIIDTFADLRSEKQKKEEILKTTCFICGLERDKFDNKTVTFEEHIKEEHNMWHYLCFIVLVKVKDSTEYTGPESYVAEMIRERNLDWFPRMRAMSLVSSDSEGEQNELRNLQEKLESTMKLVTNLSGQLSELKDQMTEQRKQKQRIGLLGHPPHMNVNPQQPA

B1: Bok^WT (exogenous wild-type Bok) (protein, UniProt Q9UMX3 1-212)
chain: MEVLRRSSVFAAEIMDAFDRSPTDKELVAQAKALGREYVHARLLRAGLSWSAPERAAPVPGRLAEVCAVLLRLGDELEMIRPSVYRNVARQLHISLQSEPVVTDAFLAVAGHIFSAGITWGKVVSLYAVAAGLAVDCVRQAQPAMVHALVDCLGEFVRKTLATWLRRRGGWTDVLKCVVSTDPGLRSHWLVAALCSFGRFLKAAFFVLLPER
B2: Bok^S8A (protein, UniProt Q9UMX3 1-212)
chain: B1 chain with S8A
B3: Bok^S8E (protein, UniProt Q9UMX3 1-212)
chain: B1 chain with S8E

What follows are binders tested against IP3R1HA^WT (exogenous HA-tagged IP3R1) (UniProt P11881) (assay: co-IP; HEK-3KO cells transiently transfected with IP3R1HA^WT and Bok constructs; 1% CHAPS lysates; IP3R1HA IPs, immunoblot for Bok).

binding, binds:
B1, B2, B3
